Patent US4786627A, “Thiadiazole guanidines” (Reckitt & Colman Products Limited, priority 1987, dated 1988)
At least one compound was matched to its structure with a doubt left.

System: electrically and chemically induced seizures
Test: anticonvulsant activity in animal tests (electrically and chemically induced seizures)
Format: in vivo
Conditions: rat and mouse, oral
Description: The pharmacological activity of the compounds of the invention have been determined according to the following procedures. Their anticonvulsant activity was determined in the metrazol antagonism test in mice (MMS) (Soaje-Echaque E; Lim RKS, J Pharmac Exp Ther 1962, 138, 224; Desmedt LKC; Niemegeers CJE; Lewi PJ; Janssen PAJ, Arzneim-Forsch (Drug Res), 1976, 26, 1592) and the electroshock test in mice (MES)(Tulloch IF; Walter DS; Howe GM; Howe SJ, Neuropharmacology 1982, 21, 555).

Compound: CNC(=N)Nc1nnc(-c2ccccc2C(F)(F)F)s1 [Example 2, 2-(3-Methylguanidino)-5-[2-(trifluoromethyl)phenyl]-1,3,4-thiadiazole]
- anticonvulsant activity (in words): potent anticonvulsants blocking both electrically and chemically induced seizures
